Source: paper PMC5995851, “Conformational rearrangements of the C1 ring in KaiC measure the timing of assembly with KaiB” (Scientific Reports, 2018)
These are yes or no findings as the source states them, for the method shown. Some binding calls cover weakened binding; strength is not graded here.

Target: KaiC1^S229W (C1-domain truncation of KaiC with S229W) (Synechococcus elongatus) (UniProt Q79PF4)
Assay: crystal structure; KaiC1^S229W, reflections at 50-2.8 Å, 100 K, molecular replacement with 4TL7; both purified

binding: binds
B1: KaiC1^S229W (C1-domain truncation of KaiC with S229W) (domain or fragment, UniProt Q79PF4 1-254)
chain: MTSAEMTSPNNNSEHQAIAKMRTMIEGFDDISHGGLPIGRSTLVSGTSGTGKTLFSIQFLYNGIIEFDEPGVFVTFEETPQDIIKNARSFGWDLAKLVDEGKLFILDASPDPEGQEVVGGFDLSALIERINYAIQKYRARRVSIDSVTSVFQQYDASSVVRRELFRLVARLKQIGATTVMTTERIEEYGPIARYGVEEFVSDNVVILRNVLEGERRRRTLEILKLRGTWHMKGEYPFTITDHGINIFPLGAMRL
